Data from publication doi:10.1101/2024.09.03.611104.
These are yes or no findings as the source states them, for the method shown. In cells and extracts the contact can be indirect. Some entries that bind do so weakly or less than the wild type. Where a sequence is shown, tags or fusion partners need not be part of it.

By UniProt entry, the sequences of proteins in these tests, tags left out.
UniProt P32121: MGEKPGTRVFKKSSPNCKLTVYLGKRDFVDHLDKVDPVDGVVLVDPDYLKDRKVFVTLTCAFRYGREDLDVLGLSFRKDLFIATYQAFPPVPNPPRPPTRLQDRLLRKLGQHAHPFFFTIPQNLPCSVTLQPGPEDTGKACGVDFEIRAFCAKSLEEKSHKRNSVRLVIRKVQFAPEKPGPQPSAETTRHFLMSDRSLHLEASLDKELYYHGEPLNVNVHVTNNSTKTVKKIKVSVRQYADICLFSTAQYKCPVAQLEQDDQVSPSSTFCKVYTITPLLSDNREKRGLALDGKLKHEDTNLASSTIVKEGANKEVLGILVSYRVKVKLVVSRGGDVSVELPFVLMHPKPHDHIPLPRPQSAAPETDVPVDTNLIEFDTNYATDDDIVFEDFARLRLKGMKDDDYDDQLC

Target: T1, GFP-tagged LPA3 receptor (UniProt Q9UBY5)
T1 sequence: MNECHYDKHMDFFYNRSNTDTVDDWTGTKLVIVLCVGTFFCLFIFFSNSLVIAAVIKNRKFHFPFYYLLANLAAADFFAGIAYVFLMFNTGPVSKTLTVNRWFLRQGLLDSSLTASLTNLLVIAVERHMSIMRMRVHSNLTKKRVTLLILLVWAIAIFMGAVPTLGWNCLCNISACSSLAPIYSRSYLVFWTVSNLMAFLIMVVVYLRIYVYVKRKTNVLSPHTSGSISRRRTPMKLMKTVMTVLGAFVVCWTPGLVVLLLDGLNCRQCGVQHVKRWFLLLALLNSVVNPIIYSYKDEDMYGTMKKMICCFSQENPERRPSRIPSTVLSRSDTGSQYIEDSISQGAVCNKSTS
Assay: FRET or BRET

binding: binds
Substance: mCherry-tagged β-arrestin 2 (from UniProt P32121 1-409)
